No constants are given. Whether binding was seen depends on the method and setting. In cells and extracts the contact can be indirect. Here binding means that the protein was enriched with, or labelled near, the bait; the list need not be complete.
B1: CTCF (CCCTC-binding factor) (protein, UniProt P49711 1-727)
chain: MEGDAVEAIVEESETFIKGKERKTYQRRREGGQEEDACHLPQNQTDGGEVVQDVNSSVQMVMMEQLDPTLLQMKTEVMEGTVAPEAEAAVDDTQIITLQVVNMEEQPINIGELQLVQVPVPVTVPVATTSVEELQGAYENEVSKEGLAESEPMICHTLPLPEGFQVVKVGANGEVETLEQGELPPQEDPSWQKDPDYQPPAKKTKKTKKSKLRYTEEGKDVDVSVYDFEEEQQEGLLSEVNAEKVVGNMKPPKPTKIKKKGVKKTFQCELCSYTCPRRSNLDRHMKSHTDERPHKCHLCGRAFRTVTLLRNHLNTHTGTRPHKCPDCDMAFVTSGELVRHRRYKHTHEKPFKCSMCDYASVEVSKLKRHIRSHTGERPFQCSLCSYASRDTYKLKRHMRTHSGEKPYECYICHARFTQSGTMKMHILQKHTENVAKFHCPHCDTVIARKSDLGVHLRKQHSYIEQGKKCRYCDAVFHERYALIQHQKSHKNEKRFKCDQCDYACRQERHMIMHKRTHTGEKPYACSHCDKTFRQKQLLDMHFKRYHDPNFVPAAFVCSKCGKTFTRRNTMARHADNCAGPDGVEGENGGETKKSKRGRKRKMRSKKEDSSDSENAEPDLDDNEDEEEPAVEIEPEPEPQPVTPAPPPAKKRRGRPPGRTNQPKQNQPTAIIQVEDQNTGAIENIIVEVKKEPDAEPAEGEEEEAQPAATDAPNGDLTPEMILSMMDR
B2: ZNF280C/ZPET (protein, UniProt Q8ND82 1-737)
chain: MDDDKPFQPKNISKMAELFMECEEEELEPWQKKVEETQDEDDDELIFVGEISSSKPAISNILNRGHSSSSSKGIKSEPHSPGIPEIFRTASQRCRDPPSNPVAASPRFHLVSKSSQSSVTVENASKPDFTKNSQVGSDNSSILLFDSTQESLPPSQDIPAIFREGMKNTSYVLKHPSTSKVNSVTPKKPKTSEDVPQINPSTSLPLIGSPPVTSSQVMLSKGTNTSSPYDAGADYLRACPKCNVQFNLLDPLKYHMKHCCPDMITKFLGVIVKSERPCDEDKTDSETGKLIMLVNEFYYGRHEGVTEKEPKTYTTFKCFSCSKVLKNNIRFMNHMKHHLELEKQNNESWENHTTCQHCYRQYPTPFQLQCHIESTHTPHEFSTICKICELSFETEHILLQHMKDTHKPGEMPYVCQVCQFRSSTFSDVEAHFRAAHENTKNLLCPFCLKVSKMATPYMNHYMKHQKKGVHRCPKCRLQFLTSKEKAEHKAQHRTFIKPKELEGLPPGAKVTIRASLGPLQSKLPTAPFGCAPGTSFLQVTPPTSQNTTARNPRKSNASRSKTSKLHATTSTASKVNTSKPRGRIAKSKAKPSYKQKRQRNRKNKMSLALKNIRCRRGIHKCIECHSKIKDFASHFSIYIHCSFCKYNTNCNKAFVNHMMSSHSNHPGKRFCIFKKHSGTLRGITLVCLKCDFLADSSGLDRMAKHLSQRKTHTCQVIIENVSKSTSTSEPTTGCSLK
B3: ZNF281 (protein, UniProt Q9Y2X9 1-895)
chain: MKIGSGFLSGGGGTGSSGGSGSGGGGSGGGGGGGSSGRRAEMEPTFPQGMVMFNHRLPPVTSFTRPAGSAAPPPQCVLSSSTSAAPAAEPPPPPAPDMTFKKEPAASAAAFPSQRTSWGFLQSLVSIKQEKPADPEEQQSHHHHHHHHYGGLFAGAEERSPGLGGGEGGSHGVIQDLSILHQHVQQQPAQHHRDVLLSSSSRTDDHHGTEEPKQDTNVKKAKRPKPESQGIKAKRKPSASSKPSLVGDGEGAILSPSQKPHICDHCSAAFRSSYHLRRHVLIHTGERPFQCSQCSMGFIQKYLLQRHEKIHSREKPFGCDQCSMKFIQKYHMERHKRTHSGEKPYKCDTCQQYFSRTDRLLKHRRTCGEVIVKGATSAEPGSSNHTNMGNLAVLSQGNTSSSRRKTKSKSIAIENKEQKTGKTNESQISNNINMQSYSVEMPTVSSSGGIIGTGIDELQKRVPKLIFKKGSRKNTDKNYLNFVSPLPDIVGQKSLSGKPSGSLGIVSNNSVETIGLLQSTSGKQGQISSNYDDAMQFSKKRRYLPTASSNSAFSINVGHMVSQQSVIQSAGVSVLDNEAPLSLIDSSALNAEIKSCHDKSGIPDEVLQSILDQYSNKSESQKEDPFNIAEPRVDLHTSGEHSELVQEENLSPGTQTPSNDKASMLQEYSKYLQQAFEKSTNASFTLGHGFQFVSLSSPLHNHTLFPEKQIYTTSPLECGFGQSVTSVLPSSLPKPPFGMLFGSQPGLYLSALDATHQQLTPSQELDDLIDSQKNLETSSAFQSSSQKLTSQKEQKNLESSTGFQIPSQELASQIDPQKDIEPRTTYQIENFAQAFGSQFKSGSRVPMTFITNSNGEVDHRVRTSVSDFSGYTNMMSDVSEPCSTRVKTPTSQSYR

Protein sequences, listed by entry. Tags and fused reporters are not part of them.
UniProt O94892: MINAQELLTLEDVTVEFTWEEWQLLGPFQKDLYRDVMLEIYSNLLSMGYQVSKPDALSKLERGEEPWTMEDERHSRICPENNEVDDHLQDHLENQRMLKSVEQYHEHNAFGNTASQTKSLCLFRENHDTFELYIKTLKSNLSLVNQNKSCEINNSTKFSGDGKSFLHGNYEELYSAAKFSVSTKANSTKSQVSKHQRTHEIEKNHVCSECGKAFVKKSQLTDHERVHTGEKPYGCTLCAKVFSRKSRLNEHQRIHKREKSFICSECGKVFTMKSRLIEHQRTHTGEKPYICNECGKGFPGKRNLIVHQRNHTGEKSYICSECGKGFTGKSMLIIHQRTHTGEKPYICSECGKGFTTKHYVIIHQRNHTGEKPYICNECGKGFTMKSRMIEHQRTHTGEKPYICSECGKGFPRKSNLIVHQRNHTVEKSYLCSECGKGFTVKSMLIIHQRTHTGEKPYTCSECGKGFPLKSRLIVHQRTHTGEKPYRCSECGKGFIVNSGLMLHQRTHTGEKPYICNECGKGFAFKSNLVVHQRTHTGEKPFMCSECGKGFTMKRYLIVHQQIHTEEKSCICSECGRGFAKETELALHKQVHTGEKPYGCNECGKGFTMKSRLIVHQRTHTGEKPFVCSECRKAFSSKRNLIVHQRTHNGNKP
UniProt P12956: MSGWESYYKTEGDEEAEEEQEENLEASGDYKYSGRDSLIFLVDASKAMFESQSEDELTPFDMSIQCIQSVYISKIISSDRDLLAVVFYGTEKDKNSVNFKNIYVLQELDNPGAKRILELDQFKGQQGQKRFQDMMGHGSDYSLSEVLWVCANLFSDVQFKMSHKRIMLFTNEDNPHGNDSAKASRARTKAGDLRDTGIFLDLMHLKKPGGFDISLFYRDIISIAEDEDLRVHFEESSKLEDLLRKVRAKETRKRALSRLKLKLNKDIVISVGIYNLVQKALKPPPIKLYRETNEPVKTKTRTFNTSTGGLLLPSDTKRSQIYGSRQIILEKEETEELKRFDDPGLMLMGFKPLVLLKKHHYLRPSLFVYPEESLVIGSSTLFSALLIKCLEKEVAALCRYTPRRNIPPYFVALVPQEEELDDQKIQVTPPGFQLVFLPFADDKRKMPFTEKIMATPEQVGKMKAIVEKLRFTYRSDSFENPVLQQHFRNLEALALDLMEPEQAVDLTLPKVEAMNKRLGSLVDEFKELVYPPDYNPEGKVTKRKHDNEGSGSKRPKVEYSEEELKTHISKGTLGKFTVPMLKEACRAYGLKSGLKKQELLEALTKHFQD
UniProt O75530: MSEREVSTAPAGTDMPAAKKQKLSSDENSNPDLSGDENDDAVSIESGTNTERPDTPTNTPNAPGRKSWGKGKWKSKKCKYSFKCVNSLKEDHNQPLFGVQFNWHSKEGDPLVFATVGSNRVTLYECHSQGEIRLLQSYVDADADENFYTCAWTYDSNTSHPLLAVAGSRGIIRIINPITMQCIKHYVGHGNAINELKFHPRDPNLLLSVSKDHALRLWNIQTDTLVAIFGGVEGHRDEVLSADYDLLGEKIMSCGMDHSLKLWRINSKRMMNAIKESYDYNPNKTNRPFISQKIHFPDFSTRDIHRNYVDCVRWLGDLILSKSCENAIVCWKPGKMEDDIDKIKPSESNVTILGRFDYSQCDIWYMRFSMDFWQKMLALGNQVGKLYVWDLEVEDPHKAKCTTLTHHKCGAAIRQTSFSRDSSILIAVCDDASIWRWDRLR
UniProt Q13547: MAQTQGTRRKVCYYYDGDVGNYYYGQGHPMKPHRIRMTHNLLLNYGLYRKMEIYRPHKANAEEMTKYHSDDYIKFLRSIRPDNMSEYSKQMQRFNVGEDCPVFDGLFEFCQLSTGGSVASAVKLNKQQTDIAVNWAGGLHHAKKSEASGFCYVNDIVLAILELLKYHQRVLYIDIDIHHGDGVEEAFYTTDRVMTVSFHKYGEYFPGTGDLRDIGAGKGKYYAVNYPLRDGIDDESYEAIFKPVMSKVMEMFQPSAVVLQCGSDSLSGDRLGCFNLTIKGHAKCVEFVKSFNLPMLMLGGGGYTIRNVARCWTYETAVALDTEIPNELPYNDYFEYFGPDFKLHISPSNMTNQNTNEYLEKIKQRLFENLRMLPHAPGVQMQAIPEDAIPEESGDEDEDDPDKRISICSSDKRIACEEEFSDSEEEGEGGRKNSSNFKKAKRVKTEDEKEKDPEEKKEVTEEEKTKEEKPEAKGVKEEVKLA
UniProt Q01105: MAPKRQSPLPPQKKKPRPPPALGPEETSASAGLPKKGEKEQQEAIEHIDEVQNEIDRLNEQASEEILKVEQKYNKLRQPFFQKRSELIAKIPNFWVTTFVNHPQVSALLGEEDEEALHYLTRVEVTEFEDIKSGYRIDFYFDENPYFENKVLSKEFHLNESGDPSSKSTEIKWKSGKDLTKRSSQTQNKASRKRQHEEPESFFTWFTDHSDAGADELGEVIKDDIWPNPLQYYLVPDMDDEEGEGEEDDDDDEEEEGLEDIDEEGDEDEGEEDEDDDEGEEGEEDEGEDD
UniProt O60264: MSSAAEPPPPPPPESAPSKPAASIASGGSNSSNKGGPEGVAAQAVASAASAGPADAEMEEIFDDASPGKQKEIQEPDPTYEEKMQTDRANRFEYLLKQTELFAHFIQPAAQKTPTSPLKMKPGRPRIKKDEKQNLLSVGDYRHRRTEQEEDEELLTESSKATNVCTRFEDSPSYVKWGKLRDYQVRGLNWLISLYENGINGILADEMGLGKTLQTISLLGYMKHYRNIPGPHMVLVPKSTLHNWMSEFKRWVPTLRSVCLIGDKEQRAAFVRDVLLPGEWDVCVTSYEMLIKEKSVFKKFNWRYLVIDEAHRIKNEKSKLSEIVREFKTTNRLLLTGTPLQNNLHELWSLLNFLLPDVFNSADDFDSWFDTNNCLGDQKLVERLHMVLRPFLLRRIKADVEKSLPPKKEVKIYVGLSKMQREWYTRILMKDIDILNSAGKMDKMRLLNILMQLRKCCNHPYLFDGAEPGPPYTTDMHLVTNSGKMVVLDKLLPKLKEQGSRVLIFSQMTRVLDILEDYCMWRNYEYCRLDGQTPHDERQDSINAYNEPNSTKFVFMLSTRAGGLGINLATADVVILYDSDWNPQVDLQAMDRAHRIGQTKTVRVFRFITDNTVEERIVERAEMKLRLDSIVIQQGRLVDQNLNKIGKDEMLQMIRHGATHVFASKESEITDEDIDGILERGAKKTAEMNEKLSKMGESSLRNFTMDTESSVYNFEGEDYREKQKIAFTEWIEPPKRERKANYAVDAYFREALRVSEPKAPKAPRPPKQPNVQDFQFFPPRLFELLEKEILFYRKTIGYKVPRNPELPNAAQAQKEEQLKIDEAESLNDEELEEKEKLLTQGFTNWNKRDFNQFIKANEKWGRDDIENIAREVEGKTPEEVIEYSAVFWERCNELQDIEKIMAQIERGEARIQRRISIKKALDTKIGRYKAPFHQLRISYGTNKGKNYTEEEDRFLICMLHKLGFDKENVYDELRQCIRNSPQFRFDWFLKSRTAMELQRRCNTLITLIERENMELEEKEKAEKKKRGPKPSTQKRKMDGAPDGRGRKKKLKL
UniProt Q15022: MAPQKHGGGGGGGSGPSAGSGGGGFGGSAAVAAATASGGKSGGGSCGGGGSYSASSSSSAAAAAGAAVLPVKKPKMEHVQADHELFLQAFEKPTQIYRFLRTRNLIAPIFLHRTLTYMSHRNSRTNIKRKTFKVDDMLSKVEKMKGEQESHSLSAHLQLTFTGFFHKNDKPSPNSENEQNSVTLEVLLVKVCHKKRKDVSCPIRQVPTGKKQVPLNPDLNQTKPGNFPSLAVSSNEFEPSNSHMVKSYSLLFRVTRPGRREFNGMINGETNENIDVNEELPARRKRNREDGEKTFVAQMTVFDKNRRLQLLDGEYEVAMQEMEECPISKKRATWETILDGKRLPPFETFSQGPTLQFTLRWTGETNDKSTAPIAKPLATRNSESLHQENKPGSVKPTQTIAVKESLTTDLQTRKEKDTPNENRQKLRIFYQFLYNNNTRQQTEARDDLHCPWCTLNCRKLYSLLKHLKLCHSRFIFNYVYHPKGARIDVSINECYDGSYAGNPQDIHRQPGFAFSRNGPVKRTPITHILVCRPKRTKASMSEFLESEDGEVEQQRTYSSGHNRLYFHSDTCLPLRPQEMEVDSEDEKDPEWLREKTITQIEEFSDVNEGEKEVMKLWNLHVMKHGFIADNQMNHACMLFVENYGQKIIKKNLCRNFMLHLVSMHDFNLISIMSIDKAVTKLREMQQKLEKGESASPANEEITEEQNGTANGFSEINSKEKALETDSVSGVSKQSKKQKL
UniProt Q13263: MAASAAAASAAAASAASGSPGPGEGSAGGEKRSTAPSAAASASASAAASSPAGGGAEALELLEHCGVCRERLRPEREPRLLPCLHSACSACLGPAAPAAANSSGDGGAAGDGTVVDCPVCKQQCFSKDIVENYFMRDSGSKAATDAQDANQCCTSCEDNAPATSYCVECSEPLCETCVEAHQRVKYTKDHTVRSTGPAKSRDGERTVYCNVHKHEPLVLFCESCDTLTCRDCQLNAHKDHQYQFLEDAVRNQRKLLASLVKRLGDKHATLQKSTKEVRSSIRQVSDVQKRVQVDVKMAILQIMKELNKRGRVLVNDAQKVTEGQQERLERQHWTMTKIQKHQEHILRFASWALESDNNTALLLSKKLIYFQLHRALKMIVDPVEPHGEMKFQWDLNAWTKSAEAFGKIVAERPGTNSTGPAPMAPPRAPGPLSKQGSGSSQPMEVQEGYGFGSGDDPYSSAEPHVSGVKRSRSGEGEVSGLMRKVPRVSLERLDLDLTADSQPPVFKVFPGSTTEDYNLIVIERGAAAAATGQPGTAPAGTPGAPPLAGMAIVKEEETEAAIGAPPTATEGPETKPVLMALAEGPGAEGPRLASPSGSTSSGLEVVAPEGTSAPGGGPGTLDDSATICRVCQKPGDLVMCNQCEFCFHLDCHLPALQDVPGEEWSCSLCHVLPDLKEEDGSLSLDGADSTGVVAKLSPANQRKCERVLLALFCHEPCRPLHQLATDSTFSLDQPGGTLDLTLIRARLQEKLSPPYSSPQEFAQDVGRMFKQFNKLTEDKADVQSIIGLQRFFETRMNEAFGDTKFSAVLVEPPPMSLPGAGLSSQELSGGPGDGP
UniProt P11387: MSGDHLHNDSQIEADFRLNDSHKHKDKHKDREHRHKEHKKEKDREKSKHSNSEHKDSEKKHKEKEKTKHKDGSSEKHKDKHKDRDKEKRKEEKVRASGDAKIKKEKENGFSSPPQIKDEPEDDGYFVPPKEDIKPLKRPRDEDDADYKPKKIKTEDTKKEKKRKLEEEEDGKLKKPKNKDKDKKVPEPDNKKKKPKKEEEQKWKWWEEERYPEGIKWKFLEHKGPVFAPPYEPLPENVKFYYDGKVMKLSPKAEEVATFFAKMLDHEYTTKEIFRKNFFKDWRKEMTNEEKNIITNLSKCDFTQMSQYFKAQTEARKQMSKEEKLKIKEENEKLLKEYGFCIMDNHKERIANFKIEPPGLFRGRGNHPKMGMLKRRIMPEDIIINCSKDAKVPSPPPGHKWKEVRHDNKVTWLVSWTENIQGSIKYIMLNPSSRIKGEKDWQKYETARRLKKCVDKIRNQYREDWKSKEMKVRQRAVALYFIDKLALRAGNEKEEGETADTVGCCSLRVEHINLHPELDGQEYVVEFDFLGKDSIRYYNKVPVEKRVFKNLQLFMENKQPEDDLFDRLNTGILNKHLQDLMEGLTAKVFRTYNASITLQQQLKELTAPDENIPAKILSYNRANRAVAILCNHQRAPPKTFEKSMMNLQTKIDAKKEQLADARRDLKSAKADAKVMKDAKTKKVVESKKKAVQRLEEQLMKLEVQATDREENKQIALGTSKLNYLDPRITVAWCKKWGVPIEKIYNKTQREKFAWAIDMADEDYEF
UniProt P13010: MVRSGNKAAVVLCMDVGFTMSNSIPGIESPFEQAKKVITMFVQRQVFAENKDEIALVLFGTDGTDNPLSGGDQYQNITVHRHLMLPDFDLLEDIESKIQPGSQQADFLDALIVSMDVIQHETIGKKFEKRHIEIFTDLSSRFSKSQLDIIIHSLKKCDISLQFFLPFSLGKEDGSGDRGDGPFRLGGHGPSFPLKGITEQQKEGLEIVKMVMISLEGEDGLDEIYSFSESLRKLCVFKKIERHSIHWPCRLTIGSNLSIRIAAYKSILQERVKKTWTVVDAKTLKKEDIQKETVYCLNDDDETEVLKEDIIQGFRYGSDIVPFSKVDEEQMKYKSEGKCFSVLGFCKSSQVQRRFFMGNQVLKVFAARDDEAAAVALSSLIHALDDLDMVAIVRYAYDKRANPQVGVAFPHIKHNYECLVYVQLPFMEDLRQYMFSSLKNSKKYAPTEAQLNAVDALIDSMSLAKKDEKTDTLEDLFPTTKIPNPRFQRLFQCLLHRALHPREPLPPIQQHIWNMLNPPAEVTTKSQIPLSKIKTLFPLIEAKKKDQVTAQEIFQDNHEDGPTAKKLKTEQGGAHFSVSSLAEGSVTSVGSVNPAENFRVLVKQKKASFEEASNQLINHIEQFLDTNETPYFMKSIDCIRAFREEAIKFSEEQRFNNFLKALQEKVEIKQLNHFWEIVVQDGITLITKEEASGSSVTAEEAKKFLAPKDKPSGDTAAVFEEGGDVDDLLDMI

molecular target: GFP-ZNF432 (expressed in HEK293T cells) (human) (UniProt O94892); assay: affinity purification with mass spectrometry; GFP-ZNF432 captured from HEK293T whole cell extracts (wild type and PARP-1 KO, untreated or hydrogen peroxide) on Protein G Dynabeads coated with anti-GFP antibody; 40 mM HEPES pH 7.5, 0.3% CHAPS, 150 mM NaCl, 4°C, 2 h; on-bead digestion, LC-MS/MS

binding, binds:
XRCC6/KU70 (from UniProt P12956 1-609)
EED (from UniProt O75530 1-441)
HDAC1 (from UniProt Q13547 1-482)
SUPT16H (from UniProt Q9Y5B9 1-1047)
PRKDC/DNA-PKcs (from UniProt P78527 1-4128)
nuclear oncogene SET (from UniProt Q01105 1-290)
BLM (from UniProt P54132 1-1417)
SMARCA5 (from UniProt O60264 1-1052)
SUZ12 (from UniProt Q15022 1-739)
poly(ADP-ribose) polymerase-1 (endogenous, HEK293T) (from UniProt P09874 1-1014)
SSRP1 (from UniProt Q08945 1-709)
KRAB-associated protein 1 (from UniProt Q13263 1-835)
MDC1 (from UniProt Q14676 1-2089)
TOP1 (from UniProt P11387 1-765)
XRCC5/KU80 (from UniProt P13010 1-732)
FUS (from UniProt P35637 1-526)
B1
B2
B3
